In the supplement of paper PMC10849652:
This is one part of the list.

The chains behind the UniProt entries cited, without tags or fusion partners. Where a name states a change or a piece, a line headed by the entry shows the natural chain unless it says otherwise.
UniProt Q8WUB8: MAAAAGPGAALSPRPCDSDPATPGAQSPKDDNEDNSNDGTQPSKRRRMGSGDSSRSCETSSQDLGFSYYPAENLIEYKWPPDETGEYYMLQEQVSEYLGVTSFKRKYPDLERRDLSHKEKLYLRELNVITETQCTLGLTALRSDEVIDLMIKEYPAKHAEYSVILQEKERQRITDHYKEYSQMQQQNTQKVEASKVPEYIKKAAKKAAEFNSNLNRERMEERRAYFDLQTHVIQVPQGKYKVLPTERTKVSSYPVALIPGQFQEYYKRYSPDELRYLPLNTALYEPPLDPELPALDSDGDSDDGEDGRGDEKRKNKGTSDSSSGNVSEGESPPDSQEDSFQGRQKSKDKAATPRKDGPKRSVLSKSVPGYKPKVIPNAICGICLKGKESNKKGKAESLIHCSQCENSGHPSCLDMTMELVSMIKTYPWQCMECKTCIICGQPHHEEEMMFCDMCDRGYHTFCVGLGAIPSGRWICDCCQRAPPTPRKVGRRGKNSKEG
UniProt O15212, whole entry, looked up: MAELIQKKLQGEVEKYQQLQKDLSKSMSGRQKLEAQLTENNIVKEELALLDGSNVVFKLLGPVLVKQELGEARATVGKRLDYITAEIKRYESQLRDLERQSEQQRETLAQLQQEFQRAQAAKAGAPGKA
UniProt Q9UHV9, whole entry, looked up: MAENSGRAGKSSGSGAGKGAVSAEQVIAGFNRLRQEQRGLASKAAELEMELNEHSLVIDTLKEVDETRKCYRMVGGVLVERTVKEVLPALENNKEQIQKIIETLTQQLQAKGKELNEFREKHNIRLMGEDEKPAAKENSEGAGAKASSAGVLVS
UniProt P42356, whole entry, looked up: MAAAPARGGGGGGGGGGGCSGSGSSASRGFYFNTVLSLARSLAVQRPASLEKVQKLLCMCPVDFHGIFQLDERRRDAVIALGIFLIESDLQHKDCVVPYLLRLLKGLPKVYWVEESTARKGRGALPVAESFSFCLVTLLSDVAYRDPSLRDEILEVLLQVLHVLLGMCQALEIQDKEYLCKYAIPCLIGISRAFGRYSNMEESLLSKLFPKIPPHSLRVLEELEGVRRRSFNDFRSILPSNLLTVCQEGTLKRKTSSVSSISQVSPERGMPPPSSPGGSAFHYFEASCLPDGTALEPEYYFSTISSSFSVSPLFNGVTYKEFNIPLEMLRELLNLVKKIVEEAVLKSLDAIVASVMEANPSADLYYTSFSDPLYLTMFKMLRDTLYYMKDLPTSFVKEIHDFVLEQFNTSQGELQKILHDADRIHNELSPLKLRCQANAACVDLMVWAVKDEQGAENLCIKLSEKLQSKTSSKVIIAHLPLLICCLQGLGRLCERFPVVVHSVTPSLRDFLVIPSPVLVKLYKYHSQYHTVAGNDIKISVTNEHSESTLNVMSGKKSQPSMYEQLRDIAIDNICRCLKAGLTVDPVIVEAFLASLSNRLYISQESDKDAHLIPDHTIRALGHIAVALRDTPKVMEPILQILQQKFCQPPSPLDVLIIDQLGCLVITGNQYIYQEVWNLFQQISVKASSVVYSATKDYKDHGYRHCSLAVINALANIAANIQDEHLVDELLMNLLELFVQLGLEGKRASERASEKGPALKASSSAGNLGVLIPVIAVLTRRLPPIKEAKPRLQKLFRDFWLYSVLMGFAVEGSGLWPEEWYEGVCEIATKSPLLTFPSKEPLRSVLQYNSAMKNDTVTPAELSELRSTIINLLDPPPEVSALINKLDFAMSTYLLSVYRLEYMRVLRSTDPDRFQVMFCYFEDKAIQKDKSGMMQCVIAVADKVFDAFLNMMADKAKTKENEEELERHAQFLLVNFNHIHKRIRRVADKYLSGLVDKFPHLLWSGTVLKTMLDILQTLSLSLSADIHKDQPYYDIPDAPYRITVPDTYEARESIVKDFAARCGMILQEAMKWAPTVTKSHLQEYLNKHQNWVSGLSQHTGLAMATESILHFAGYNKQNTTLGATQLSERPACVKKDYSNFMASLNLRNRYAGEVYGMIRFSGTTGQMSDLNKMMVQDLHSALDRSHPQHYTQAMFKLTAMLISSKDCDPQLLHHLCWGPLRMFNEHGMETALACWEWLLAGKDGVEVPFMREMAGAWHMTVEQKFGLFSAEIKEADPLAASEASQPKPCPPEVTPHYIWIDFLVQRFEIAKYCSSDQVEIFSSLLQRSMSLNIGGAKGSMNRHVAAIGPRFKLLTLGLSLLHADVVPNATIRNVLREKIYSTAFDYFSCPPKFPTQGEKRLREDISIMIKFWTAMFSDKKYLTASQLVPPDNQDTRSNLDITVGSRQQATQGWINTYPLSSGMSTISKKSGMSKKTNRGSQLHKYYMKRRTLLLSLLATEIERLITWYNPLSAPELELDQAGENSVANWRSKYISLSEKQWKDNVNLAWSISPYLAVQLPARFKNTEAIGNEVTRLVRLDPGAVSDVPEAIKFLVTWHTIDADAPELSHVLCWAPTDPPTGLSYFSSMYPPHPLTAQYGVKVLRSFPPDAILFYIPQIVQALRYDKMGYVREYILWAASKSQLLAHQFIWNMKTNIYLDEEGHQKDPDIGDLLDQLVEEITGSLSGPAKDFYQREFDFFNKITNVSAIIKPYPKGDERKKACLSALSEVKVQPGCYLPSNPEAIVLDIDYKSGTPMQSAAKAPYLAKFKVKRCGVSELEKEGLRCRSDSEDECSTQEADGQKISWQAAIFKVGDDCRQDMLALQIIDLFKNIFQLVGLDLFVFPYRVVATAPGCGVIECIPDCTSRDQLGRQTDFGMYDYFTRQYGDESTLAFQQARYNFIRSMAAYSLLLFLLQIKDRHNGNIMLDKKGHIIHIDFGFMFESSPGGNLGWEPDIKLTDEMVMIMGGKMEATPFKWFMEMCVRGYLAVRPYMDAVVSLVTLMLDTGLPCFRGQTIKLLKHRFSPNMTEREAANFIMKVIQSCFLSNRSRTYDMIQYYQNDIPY
UniProt Q16875: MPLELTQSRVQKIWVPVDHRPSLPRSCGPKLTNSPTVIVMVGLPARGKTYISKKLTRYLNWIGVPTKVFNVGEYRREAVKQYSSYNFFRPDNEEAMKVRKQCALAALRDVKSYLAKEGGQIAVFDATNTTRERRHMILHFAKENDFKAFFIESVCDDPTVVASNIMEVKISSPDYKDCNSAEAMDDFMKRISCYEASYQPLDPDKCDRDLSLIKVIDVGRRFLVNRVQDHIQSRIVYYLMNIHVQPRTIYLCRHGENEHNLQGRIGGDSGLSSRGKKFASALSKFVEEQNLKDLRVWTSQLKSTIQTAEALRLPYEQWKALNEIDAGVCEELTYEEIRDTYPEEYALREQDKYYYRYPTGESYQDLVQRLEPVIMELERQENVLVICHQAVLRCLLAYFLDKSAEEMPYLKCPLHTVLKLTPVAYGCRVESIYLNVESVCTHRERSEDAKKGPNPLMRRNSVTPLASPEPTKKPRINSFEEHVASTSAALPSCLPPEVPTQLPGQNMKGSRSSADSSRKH
UniProt Q9GZP4: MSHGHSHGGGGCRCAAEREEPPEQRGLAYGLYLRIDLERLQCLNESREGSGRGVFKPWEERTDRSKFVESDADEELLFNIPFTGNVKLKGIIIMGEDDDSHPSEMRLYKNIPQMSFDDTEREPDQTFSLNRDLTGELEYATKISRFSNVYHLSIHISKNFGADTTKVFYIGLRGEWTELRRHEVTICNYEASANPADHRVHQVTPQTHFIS
UniProt Q9NWS0, whole entry, looked up: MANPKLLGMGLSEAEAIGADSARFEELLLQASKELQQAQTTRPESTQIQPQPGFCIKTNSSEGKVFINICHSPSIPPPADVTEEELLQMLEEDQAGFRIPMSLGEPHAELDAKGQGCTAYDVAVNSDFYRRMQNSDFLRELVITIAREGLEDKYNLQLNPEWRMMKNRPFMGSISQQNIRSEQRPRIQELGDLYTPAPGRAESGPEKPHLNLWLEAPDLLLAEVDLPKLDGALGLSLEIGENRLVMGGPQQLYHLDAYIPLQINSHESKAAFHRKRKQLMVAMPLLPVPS
UniProt O00264: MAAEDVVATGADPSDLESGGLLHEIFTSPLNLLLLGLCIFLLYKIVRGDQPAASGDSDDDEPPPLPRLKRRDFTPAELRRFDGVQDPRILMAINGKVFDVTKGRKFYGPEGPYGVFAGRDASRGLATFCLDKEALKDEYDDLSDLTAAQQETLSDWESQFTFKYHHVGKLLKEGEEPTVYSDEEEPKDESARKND
UniProt P07205: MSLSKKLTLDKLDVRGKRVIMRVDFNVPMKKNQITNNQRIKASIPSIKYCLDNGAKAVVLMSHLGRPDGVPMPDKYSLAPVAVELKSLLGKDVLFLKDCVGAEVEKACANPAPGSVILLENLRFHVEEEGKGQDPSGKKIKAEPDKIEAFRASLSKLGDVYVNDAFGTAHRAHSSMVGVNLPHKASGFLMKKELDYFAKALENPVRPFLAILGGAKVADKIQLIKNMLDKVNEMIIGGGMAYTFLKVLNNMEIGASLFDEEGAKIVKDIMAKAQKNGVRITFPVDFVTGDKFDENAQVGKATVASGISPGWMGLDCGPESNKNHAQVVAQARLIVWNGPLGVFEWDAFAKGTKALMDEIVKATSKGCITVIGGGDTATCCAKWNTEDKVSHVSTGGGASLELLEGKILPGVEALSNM
UniProt Q8TEQ8: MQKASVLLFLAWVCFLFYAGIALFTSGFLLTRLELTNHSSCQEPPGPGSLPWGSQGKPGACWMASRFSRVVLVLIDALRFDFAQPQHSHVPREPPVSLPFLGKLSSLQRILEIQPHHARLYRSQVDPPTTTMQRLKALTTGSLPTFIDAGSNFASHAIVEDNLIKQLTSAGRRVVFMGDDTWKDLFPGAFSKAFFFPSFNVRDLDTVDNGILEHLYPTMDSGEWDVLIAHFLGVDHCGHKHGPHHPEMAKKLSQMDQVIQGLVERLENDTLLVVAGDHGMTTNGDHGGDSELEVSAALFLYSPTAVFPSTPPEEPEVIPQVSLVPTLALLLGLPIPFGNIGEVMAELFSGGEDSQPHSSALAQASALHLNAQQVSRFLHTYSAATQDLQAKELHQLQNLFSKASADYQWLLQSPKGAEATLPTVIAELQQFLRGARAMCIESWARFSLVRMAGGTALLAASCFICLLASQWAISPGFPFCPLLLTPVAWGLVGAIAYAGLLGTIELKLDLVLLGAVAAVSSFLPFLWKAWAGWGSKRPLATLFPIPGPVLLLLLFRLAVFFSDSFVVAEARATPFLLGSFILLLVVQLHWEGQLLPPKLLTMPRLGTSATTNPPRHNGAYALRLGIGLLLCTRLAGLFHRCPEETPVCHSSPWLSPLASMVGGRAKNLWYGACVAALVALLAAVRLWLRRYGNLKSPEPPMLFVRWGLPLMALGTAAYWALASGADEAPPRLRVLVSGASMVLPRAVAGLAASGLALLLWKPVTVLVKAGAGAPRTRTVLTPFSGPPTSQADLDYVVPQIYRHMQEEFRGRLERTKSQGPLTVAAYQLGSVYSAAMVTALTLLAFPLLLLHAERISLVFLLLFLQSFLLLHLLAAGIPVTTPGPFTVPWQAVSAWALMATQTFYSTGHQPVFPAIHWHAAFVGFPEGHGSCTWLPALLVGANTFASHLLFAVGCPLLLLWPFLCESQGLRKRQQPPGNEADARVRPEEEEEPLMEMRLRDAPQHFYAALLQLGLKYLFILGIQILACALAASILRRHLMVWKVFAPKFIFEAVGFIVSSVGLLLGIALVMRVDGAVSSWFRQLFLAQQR
UniProt Q00169: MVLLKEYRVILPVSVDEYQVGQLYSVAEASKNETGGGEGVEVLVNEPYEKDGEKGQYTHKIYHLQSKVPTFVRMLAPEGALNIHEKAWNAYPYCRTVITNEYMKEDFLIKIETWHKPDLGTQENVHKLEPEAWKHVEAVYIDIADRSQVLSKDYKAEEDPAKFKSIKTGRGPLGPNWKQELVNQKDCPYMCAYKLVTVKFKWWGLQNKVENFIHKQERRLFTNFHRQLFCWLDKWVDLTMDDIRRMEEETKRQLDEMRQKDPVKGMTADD
UniProt Q8IZ21: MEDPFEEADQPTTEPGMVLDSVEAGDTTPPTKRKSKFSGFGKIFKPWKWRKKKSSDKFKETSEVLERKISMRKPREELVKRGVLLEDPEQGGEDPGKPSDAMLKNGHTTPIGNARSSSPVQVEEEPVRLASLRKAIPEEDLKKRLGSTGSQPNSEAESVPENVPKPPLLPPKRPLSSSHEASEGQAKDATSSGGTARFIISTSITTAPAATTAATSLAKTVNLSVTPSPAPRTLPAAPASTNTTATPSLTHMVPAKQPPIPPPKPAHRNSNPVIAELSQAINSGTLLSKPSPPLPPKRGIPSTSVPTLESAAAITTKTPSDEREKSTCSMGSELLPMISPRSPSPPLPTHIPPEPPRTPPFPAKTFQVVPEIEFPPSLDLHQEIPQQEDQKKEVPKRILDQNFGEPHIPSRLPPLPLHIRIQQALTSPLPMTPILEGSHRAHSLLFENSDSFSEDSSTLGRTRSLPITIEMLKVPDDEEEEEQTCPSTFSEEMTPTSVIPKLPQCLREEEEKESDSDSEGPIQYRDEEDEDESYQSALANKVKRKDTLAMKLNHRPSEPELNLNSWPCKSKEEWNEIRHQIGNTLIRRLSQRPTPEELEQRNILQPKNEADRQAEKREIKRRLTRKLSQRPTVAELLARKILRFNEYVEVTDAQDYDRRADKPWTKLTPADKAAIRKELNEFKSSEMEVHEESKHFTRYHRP

How the values were obtained:
Assay in all cases: log2 fold change, soluble protein after heating vs DMSO (PISA); higher = thermal stabilisation; K562 cells, 10 uM, 30 min; active = over 0.2 and 3.5 SD of the protein, either way, in both replicates (recomputed)
[1] = compound: C1=CC=C(C=C1)[C@H](COC2=CC3=C(C=C2)NC(=O)N3)NC(=O)C4=CC=CN(C4=O)CC5=CC(=C(C=C5)F)F
Summary of the method: (§1)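 Thermal stability values are relative to control samples and come from duplicates. They are expressed as log2 fold changes. For measurement, K562 cells (2×10^6 cells/mL) received 10 μM compound for 30 min, and aliquots were heated for 3 min over 48°C-58°C, pooled, and extracted at 4°C in PBS with 0.5% NP-40. Soluble protein, the supernatant after 21,000xg for 90 min, was quantified by TMTpro 16plex LC-MS/MS with equalised channel sums.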

[2] = compound: CC1=C(SC2=C1C(=N[C@H](C3=NN=C(N32)C)CC(=O)N)C4=CC=C(C=C4)Cl)C
Summary of the method: as §1

[3] = compound: CC1=C2C(=CC=C1)N=C(N(C2=O)C3=CC=CC=C3C)CN4C=NC5=C(N=CN=C54)N
Summary of the method: as §1

[4] = compound: Cc1sc2c(c1C)C(c1ccc(Cl)cc1)=N[C@@H](CC(=O)OC(C)(C)C)c1nnc(C)n1-2
Summary of the method: as §1

[5] = compound: c1ccc([C@@H]2C[C@H]2NC2CCNCC2)cc1
Summary of the method: as §1

Measured: log2 fold change

PHF10 (UniProt Q8WUB8)
inactive: [1] -0.006 | [2] -0.13 | [3] 0.021 | [4] 0.162 | [5] 0.049

PFDN6 (UniProt O15212)
inactive: [1] 0.013 | [2] 0.046 | [3] 0.004 | [4] -0.074 | [5] -0.025

PFDN2 (UniProt Q9UHV9)
inactive: [1] 0.01 | [2] 0.032 | [3] 0.017 | [4] -0.018 | [5] 0.003

PFKFB4 (UniProt Q16877)
inactive: [1] -0.031 | [2] 0.056 | [3] 0.063 | [4] -0.035 | [5] -0.02

PI4KA (UniProt P42356)
inactive: [1] -0.01 | [2] -0.079 | [3] 0.032 | [4] 0.043 | [5] -0.029

PFKFB3 isoform 4 (UniProt Q16875)
inactive: [1] 0.02 | [2] -0.014 | [3] 0.005 | [4] -0.012 | [5] -0.07

PIP4P2 (UniProt Q8N4L2)
inactive: [1] 0.045 | [2] 0.048 | [3] -0.066 | [4] -0.017 | [5] -0.018

Pulled one by one from above, 2 records:
PIP4P2 (UniProt Q8N4L2)
inactive: [1] 0.045 | [2] 0.048 | [3] -0.066 | [4] -0.017 | [5] -0.018

PI4KA (UniProt P42356)
inactive: [1] -0.01 | [2] -0.079 | [3] 0.032 | [4] 0.043 | [5] -0.029

Further results:

PITHD1 (UniProt Q9GZP4)
inactive: [1] 0.062 | [2] -0.013 | [3] 0.057 | [4] 0.036 | [5] 0.07

PGK1 (UniProt P00558)
inactive: [1] -0.012 | [2] 0.06 | [3] 0.034 | [4] -0.017 | [5] -0.047

PIH1D1 (UniProt Q9NWS0)
inactive: [1] 0 | [2] -0.003 | [3] 0.012 | [4] -0.019 | [5] 0.027

PGRMC1 (UniProt O00264)
inactive: [1] 0.021 | [2] -0.063 | [3] -0.018 | [4] -0.027 | [5] 0.027

PGAM4 (UniProt Q8N0Y7)
inactive: [1] 0.019 | [2] 0.006 | [3] -0.004 | [4] 0.019 | [5] 0.03

PGK2 (UniProt P07205)
inactive: [1] -0.1 | [2] 0.046 | [3] 0.153 | [4] 0.037 | [5] 0.034

PIGO (UniProt Q8TEQ8)
inactive: [1] -0.064 | [2] -0.016 | [3] 0.049 | [4] -0.12 | [5] -0.072

PIK3R2 (UniProt O00459)
inactive: [1] -0.133 | [2] -0.023 | [3] 0.068 | [4] -0.094 | [5] 0.028

PKM (UniProt P14618)
inactive: [1] -0.008 | [2] 0.032 | [3] 0.004 | [4] -0.005 | [5] 0.026

PHOSPHO2 (UniProt Q8TCD6)
inactive: [1] -0.076 | [2] 0.093 | [3] -0.03 | [4] -0.111 | [5] -0.296

PLCB3 (UniProt Q01970)
inactive: [1] -0.019 | [2] -0.015 | [3] 0 | [4] -0.048 | [5] -0.062

PITPNA (UniProt Q00169)
inactive: [1] 0.003 | [2] 0.045 | [3] -0.004 | [4] -0.038 | [5] 0.006

PIKFYVE (UniProt Q9Y2I7)
inactive: [1] -0.077 | [2] 0.106 | [3] 0.111 | [4] 0.068 | [5] -0.009

PHACTR4 isoform 2 (UniProt Q8IZ21)
inactive: [1] 0.022 | [2] 0.074 | [3] 0.082 | [4] -0.022 | [5] 0.057

PHKA2 (UniProt P46019)
inactive: [1] -0.018 | [2] -0.003 | [3] 0.053 | [4] 0.023 | [5] 0.024

PIP5K1A (UniProt Q99755)
inactive: [1] 0.033 | [2] -0.155 | [3] -0.116 | [4] 0.258 | [5] -0.087

PIP4P1 isoform 2 (UniProt Q86T03)
inactive: [1] -0.016 | [2] -0.106 | [3] -0.118 | [4] -0.002 | [5] 0.05
